Values quoted from earlier work as cited in US20130272974A1, “Hydroxytyrosol Product, Method of Making, and Uses Thereof” (priority 2012, published 2013).
At least one structure is not confirmed: it was looked up by name or label, or the drawing left a doubt.

Columns and labels:
[1] = test system: lipid peroxidation; details: compared with oleuropein

## OCCc1ccc(O)c(O)c1 [Hydroxytyrosol, 3,4-dihydroxyphenylethanol]
Compared with CoQ10
  ORAC relative to CoQ10: two times higher than CoQ10
Compared with Green Tea
  ORAC relative to Green Tea: ten times higher than Green Tea
[1]
  inhibition of lipid peroxidation, strength relative to oleuropein: 6 times
